PubChem BioAssay AID2685 (National Center for Advancing Translational Sciences (NCATS), 2010)
The other results are listed elsewhere or left out. Further columns of the screen follow, without active or inactive calls. Compounds called inactive in the main read-out are mostly missing here. The note in brackets gives the kind of curve behind each potency; many fits are weak.

Assay: qHTS Assay for Lipid Storage Modulators in Drosophila S3 Cells;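 as to cell number change: cells counted by Cell Tracker Red CMTPX staining in the red channel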
Conditions: BODIPY lipid droplet fluorescence, 18-24 h; for cell number change: measured here: cell count max response, cells fed with added oleic acid
Summary of the method: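 Drosophila S3 cells got compounds at several concentrations plus oleic acid (400 uM solution). Laser-scanning cytometry with 488 nm excitation read lipid droplets at 500-530 nm and cells at 575-640 nm. Percent activity was relative to 20 uM Triacsin C.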

[1] = measured here: cell number channel AC50, cells fed with added oleic acid
[2] = measured here: lipid fluorescence (Fed channel) AC50, cells fed with added oleic acid

| SMILES | cell number change [%] | AC50 [1] | AC50 [2] |
| --- | --- | --- | --- |
| COc1cc(C(=O)NCCc2cn3ccc(C)cc3n2)cc(OC)c1OC | 130 | 11.6 µM [rising, partial curve] | 11.6 µM [rising, partial curve] |
| O=S(=O)(Nc1ccc(-n2cccc2)cc1)c1ccc(Cl)cc1Cl | -66.6 | 13 µM [falling, partial curve] | 18.4 µM [falling, partial curve] |
| COc1ccc(-c2cc(C(=O)N3CCCCC3)c3ccccc3n2)cc1 | – | – | 23.1 µM [falling, partial curve, poor fit] |
| O=C(CSc1nc2c(cnn2-c2ccccc2)c(=O)[nH]1)NC1CCS(=O)(=O)C1 (stereo not given) | -19.4 | 3.26 µM [falling, single point] | 5.17 µM [falling, full curve] |
| COc1ccc(C(=O)C2CCN(CC(=O)Nc3ccccc3F)CC2)cc1 | 1.28 | – | 29.1 µM [rising, single point] |
| Cn1c(=O)c2sccc2n(Cc2ccc(Br)cc2)c1=O | 25.6 | – | – |
| N#Cc1cccc(NC(=O)CNc2cc(S(=O)(=O)N3CCOCC3)ccc2N2CCCC2)c1 | -30.2 | 23.1 µM [falling, single point] | – |
| N#Cc1cccn1-c1nccc(-c2cccs2)n1 | 7.52 | – | – |
| O=C(CSc1nc2ccccc2c(=O)n1CC1CCCO1)NCc1ccc2c(c1)OCO2 (stereo not given) | – | – | 6.51 µM [rising, single point] |
| CCOc1ccc(N(Cc2cc3cc(OC)ccc3[nH]c2=O)S(C)(=O)=O)cc1 | 4.46 | 6.51 µM [rising, single point] | 6.51 µM [rising, partial curve, poor fit] |
| CC(C)(C)NC(=O)c1ccccc1-c1nc(-c2ccccc2Cl)no1 | 82.3 | 2.59 µM [rising, full curve] | 2.59 µM [rising, partial curve] |
| O=C(C1CCCN(c2ncnc3c2nc2n3CCCCC2)C1)N1CCN(c2ccc(F)cc2)CC1 (stereo not given) | 9.54 | – | – |
| O=C(c1cccnc1)N1CCc2ccccc21 | 105 | 13 µM [rising, partial curve] | 11.6 µM [rising, partial curve] |
| CNC(=O)c1cc2c(-c3ccccc3)nn(C)c2s1 | -16.9 | – | 23.1 µM [falling, single point] |
| Cc1ccc(C(=O)NCCCNC(=O)c2ccccn2)cc1 | 19.2 | – | – |
| COc1cccc(C2CC(c3ccc(Cl)cc3)n3nc(N)nc3N2)c1 (stereo not given) | 9.61 | – | – |
| CCC(=O)N1CCN=C1SCc1cc(C)ccc1C | -27.7 | – | 6.51 µM [rising, single point] |
| NC(=O)N1N=C2/C(=C/c3ccccc3)CCCC2C1c1ccccc1 (stereo not given) | 6.85 | – | 1.84 µM [rising, partial curve, poor fit] |
| OC1CNCc2cc3c(cc21)OCCO3 (stereo not given) | -7.75 | – | 4.11 µM [falling, full curve] |

| SMILES | cell number change [%] | AC50 [1] | AC50 [2] |
| --- | --- | --- | --- |
| C/C(N)=C(/C#N)C(=O)COC(=O)CSc1ccccc1 | -8.32 | 0.82 µM [falling, full curve, poor fit] | 20.6 µM [falling, partial curve, poor fit] |
| CC1CCCC(NC(=O)COC(=O)Cc2cn3ccsc3n2)C1C (stereo not given) | -11.9 | 1.3 µM [falling, full curve, poor fit] | 5.8 µM [falling, single point] |
| Nc1nnc(-c2ccc(Cl)cc2)s1 | 28.3 | 0.411 µM [rising, full curve] | 2.59 µM [rising, partial curve] |
| O=C1c2ccccc2C(=O)N1CCCCSc1nnc2c(Cl)cc(Cl)cn12 | – | 4.11 µM [rising, partial curve] | 2.31 µM [rising, partial curve] |
| CCC(C(=O)N1CCN(Cc2ccc3c(c2)OCO3)CC1)n1c(=O)[nH]c2ccccc2c1=O (stereo not given) | -18.4 | – | 29.1 µM [falling, single point] |
| CCOc1ccccc1Nc1nnc(SCC(=O)NC(Cc2c[nH]c3ccccc23)C(=O)O)s1 (stereo not given) | 20.1 | – | – |
| O=C(Nc1cccc(C(F)(F)F)c1)c1cccc(NS(=O)(=O)c2ccc(Br)c(C(=O)O)c2)c1 | 52.9 | 20.6 µM [rising, single point] | 29.1 µM [rising, single point] |
| COc1cc(C(=O)NC(=S)NNC(=O)c2cnccn2)cc(OC)c1OC | -1.6 | 0.00461 µM [falling, full curve, poor fit] | 11.6 µM [falling, partial curve, poor fit] |
| COc1ccccc1Nc1nc(-c2sc(NC(=O)c3ccccc3)nc2C)cs1 | 67.5 | 23.1 µM [rising, partial curve] | – |
| O=C(NCc1ccccc1)C(c1cccnc1)N(C(=O)c1ccccn1)c1ccc(F)cc1 (stereo not given) | 30.4 | 7.31 µM [rising, full curve, poor fit] | 0.13 µM [rising, full curve, poor fit] |
| Cc1ccc(Cl)cc1NS(=O)(=O)c1ccc(-n2cccn2)cc1 | 4.28 | – | 7.31 µM [rising, partial curve, poor fit] |
| COc1ccc(N2CCN(C(=O)c3[nH]c4ccc(OC)cc4c3C)CC2)cc1 | 7.09 | – | – |
| COc1ccccc1N(Cc1ccccc1)S(=O)(=O)c1cccc(C(=O)Nc2ccccn2)c1 | 43.3 | 13 µM [rising, partial curve, poor fit] | – |
| CO/N=C/NC(=O)N1OC[C@@H]2COc3ccc4ccccc4c3[C@@H]21 | – | – | 0.461 µM [rising, full curve, poor fit] |
| O=C(C1Cc2ccccc2CN1S(=O)(=O)c1cccs1)N1CCCCC1 (stereo not given) | -3.17 | – | – |
| Cc1cccc(C)c1Nc1nnc(SCC(=O)Nc2ncc(C(F)(F)F)cc2Cl)s1 | 23.1 | – | 18.4 µM [rising, single point] |
| COc1ccc(C2=CC(=O)CC(C)(C)C2)cc1 | -9.15 | – | 0.517 µM [falling, single point] |
| Fc1ccc(CSc2nncn2NC/C=C/c2ccccc2)cc1 | – | 2.59 µM [rising, single point] | 0.651 µM [rising, full curve, poor fit] |

Full records as entered above. Order of values: cell number change [%] | AC50 [1] | AC50 [2]
COc1ccc(N2CCN(C(=O)c3[nH]c4ccc(OC)cc4c3C)CC2)cc1 in the list: 7.09 | – | –
Fc1ccc(CSc2nncn2NC/C=C/c2ccccc2)cc1 in the list: – | 2.59 µM [rising, single point] | 0.651 µM [rising, full curve, poor fit]
